Measurements from PubChem BioAssay AID212 (DTP/NCI, 2004).
The list does not hold the whole screen: it is rich in T/C values a quarter to a half above the control, in often repeated tests (any T/C) and in doses without a T/C. Further doses and runs are listed elsewhere. T/C: endpoint of the treated group in % of that of the vehicle group. Schedule codes are those of the source, read here as Q, the interval in days (D) or hours (H), X, the number of doses. Some doses were run more than once; their values stand side by side, smallest first. Some T/C values carry the count of animals alive at the toxicity check (mostly the fifth day); where none is given, no animal had died by that day. Some doses have a count of surviving animals in place of a T/C: the source holds a T/C of zero for them, seemingly a mark for toxic or unscored doses. Counts of survivors are from the toxicity check (mostly the fifth day) where no day follows; animals may have died later.

Tested on: BDF1 mice, colon carcinoma 38 sc, T/C %
Assay: NCI In Vivo Anticancer Drug Screen. Data for tumor model Colon Carcinoma 38 (subcutaneous) in B6D2F1 (BDF1) mice
Details: for T/C: evaluated on day 20
How it was run: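 Ratio of survival or tumor size, compound-treated animals relative to vehicle controls, in tumor-bearing mice.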

[1] = T/C endpoint: median tumor weight (est.), dose: 100.0 mg/kg/injection, schedule: Q07DX002 (ip), vehicle: saline with Tween-80, higher T/C = larger tumour
[2] = T/C endpoint: median tumor weight (est.), dose: 50.0 mg/kg/injection, schedule: Q07DX002 (ip), vehicle: Klucel (hydroxypropylcellulose) (HPC), higher T/C = larger tumour
[3] = T/C endpoint: median tumor weight (est.), dose: 800.0 mg/kg/injection, schedule: Q07DX002 (ip), vehicle: Klucel (hydroxypropylcellulose) (HPC), higher T/C = larger tumour
[4] = T/C endpoint: median tumor weight (est.), dose: 200.0 mg/kg/injection, schedule: Q07DX002 (ip), vehicle: saline with Tween-80, higher T/C = larger tumour
[5] = T/C endpoint: median tumor weight (est.), dose: 400.0 mg/kg/injection, schedule: Q07DX002 (ip), vehicle: saline with Tween-80, higher T/C = larger tumour
[6] = T/C endpoint: median tumor weight (est.), dose: 25.0 mg/kg/injection, schedule: Q07DX002 (ip), vehicle: saline with Tween-80, higher T/C = larger tumour
[7] = T/C endpoint: median tumor weight (est.), dose: 25.0 mg/kg/injection, schedule: Q07DX002 (ip), vehicle: Klucel (hydroxypropylcellulose) (HPC), higher T/C = larger tumour
[8] = T/C endpoint: median tumor weight (est.), dose: 12.5 mg/kg/injection, schedule: Q07DX002 (ip), vehicle: Klucel (hydroxypropylcellulose) (HPC), higher T/C = larger tumour
[9] = T/C endpoint: median tumor weight (est.), dose: 200.0 mg/kg/injection, schedule: Q07DX002 (ip), vehicle: Klucel (hydroxypropylcellulose) (HPC), higher T/C = larger tumour

For `CO[C@H]1C[C@](C)(O)Cc2cc3c(c(O)c21)C(=O)c1c(O)cc2c(c1C3=O)O[C@@H]1O[C@@]2(C)[C@H](O)[C@@H](N(C)C)[C@@H]1O`, the survivor count (T/C endpoint: median survival time, dose: 117.0 mg/kg/injection, schedule: Q07DX003 (sc), vehicle: other, higher T/C = longer survival) was 4 of 10 on day 63, the survivor count (T/C endpoint: median survival time, dose: 188.0 mg/kg/injection, schedule: Q07DX003 (sc), vehicle: other, higher T/C = longer survival) was 5 of 10 on day 63 and the survivor count (T/C endpoint: median survival time, dose: 304.0 mg/kg/injection, schedule: Q07DX003 (sc), vehicle: other, higher T/C = longer survival) was 3 of 10 on day 63. The T/C (T/C endpoint: median tumor weight (est.), dose: 3.12 mg/kg/injection, schedule: Q07DX002 (ip), vehicle: other, higher T/C = larger tumour) was 126 and 140 % of control, the T/C (T/C endpoint: median tumor weight (est.), dose: 12.5 mg/kg/injection, schedule: Q07DX002 (ip), vehicle: other, higher T/C = larger tumour) was 125 % of control and the survivor count (T/C endpoint: median tumor weight (est.), dose: 100.0 mg/kg/injection, schedule: Q07DX002 (ip), vehicle: other, higher T/C = larger tumour) was 0 of 8 on day 20.

In the case of `CO[C@@H]1[C@H](O)CC[C@]2(CO2)[C@H]1[C@@]1(C)O[C@@H]1CC=C(C)C`, the T/C [1] is reported as 126 % of control.

In the case of `Cc1cc(C)c(-c2cc(O)c(C)cc2O)c(C)c1`, the T/C [2] is reported as 139 % of control and the survivor count [3] is reported as 6 of 10 on day 20.

With `O=C1C(O)=C(c2ccccc2)C(=O)C(O)=C1c1ccccc1` the survivor count [1] was 6 of 10 on day 20, the survivor count [4] was 5 of 10 on day 20 and the survivor count [5] was 0 of 10 on day 20. The survivor count (T/C endpoint: median tumor weight (est.), dose: 400.0 mg/kg/injection, schedule: Q07DX002 (ip), vehicle: saline, higher T/C = larger tumour) was 6 of 10 on day 20.

`Cc1cc2cc3cc(C)c(N)cc3nc2cc1N` was tested, and the T/C [6] was 138 % of control and the survivor count [4] was 3 of 10 on day 20.

In the case of `NC(Cc1ccc(N(CCCl)Cc2ccccc2)cc1)C(=O)O` (stereo unspecified), the T/C (T/C endpoint: median tumor weight (est.), dose: 6.25 mg/kg/injection, schedule: Q07DX002 (ip), vehicle: distilled water + Tween-80, higher T/C = larger tumour) is reported as 135 % of control.

With `Nc1nc(N)c2cc(CNc3ccc(C(=O)NC(CC(=O)O)CC(=O)O)cc3)ccc2n1` the T/C [7] was 144 % of control, the T/C [2] was 127 % of control and the T/C (T/C endpoint: median tumor weight (est.), dose: 100.0 mg/kg/injection, schedule: Q07DX002 (ip), vehicle: Klucel (hydroxypropylcellulose) (HPC), higher T/C = larger tumour) was 146 % of control.

In the case of `COC1=C(OC)C(=O)C(C/C=C(\C)CC/C=C(\C)CC/C=C(\C)CC/C=C(\C)CC/C=C(\C)CC/C=C(\C)CC/C=C(\C)CC/C=C(\C)CC/C=C(\C)CCC=C(C)C)=C(C)C1=O`, the T/C [6] is reported as 128 % of control.

`CC(=O)[O][Pb]([O]C(C)=O)([c]1ccccc1)[c]1ccccc1` was tested, and the T/C [8] was 143 % of control, the T/C [7] was 146 and 148 % of control and the T/C [9] was 146 % of control.

In the case of `NC(=S)c1cn(C2OC(CO)C(O)C2O)c2ncnc(N)c12` (stereo unspecified), the survivor count (T/C endpoint: median tumor weight (est.), dose: 20.0 mg/kg/injection, schedule: Q07DX002 (ip), vehicle: suspension in saline, higher T/C = larger tumour) is reported as 1 of 10 on day 20.

For `CSCS(=O)C[C@H](CO)NC(=O)/C=C/c1c(C)[nH]c(=O)[nH]c1=O` (stereo partly specified), the T/C (T/C endpoint: median tumor weight (est.), dose: 0.12 mg/kg/injection, schedule: Q07DX002 (ip), vehicle: saline, higher T/C = larger tumour) was 128 and 144 % of control and the T/C (T/C endpoint: median tumor weight (est.), dose: 2.0 mg/kg/injection, schedule: Q07DX002 (ip), vehicle: saline, higher T/C = larger tumour) was 125 % of control.

With `O=c1c(O)c(-c2cc(O)c(O)c(O)c2)oc2cc(O)cc(O)c12` the T/C [4] was 135 % of control.

With `Clc1ccc(C2SC=Cc3ccccc32)cc1` (stereo unspecified) the survivor count [3] was 6 of 10 on day 20 and the survivor count (T/C endpoint: median tumor weight (est.), dose: 1600.0 mg/kg/injection, schedule: Q07DX002 (ip), vehicle: Klucel (hydroxypropylcellulose) (HPC), higher T/C = larger tumour) was 1 of 10 on day 20.

With `O=C1C=C2C(=CCOC2O)O1` (stereo unspecified) the T/C (T/C endpoint: median tumor weight (est.), dose: 0.5 mg/kg/injection, schedule: Q07DX002 (ip), vehicle: water, higher T/C = larger tumour) was 144 % of control, the T/C (T/C endpoint: median tumor weight (est.), dose: 3.0 mg/kg/injection, schedule: Q07DX002 (ip), vehicle: saline, higher T/C = larger tumour) was 141 % of control [9 of 10 alive on day 20] and the survivor count (T/C endpoint: median tumor weight (est.), dose: 6.0 mg/kg/injection, schedule: Q07DX002 (ip), vehicle: saline, higher T/C = larger tumour) was 4 of 10 on day 20. For the same molecule, the survivor count (T/C endpoint: median tumor weight (est.), dose: 8.0 mg/kg/injection, schedule: Q07DX002 (ip), vehicle: water, higher T/C = larger tumour) was 0 of 10 on day 20, the survivor count (T/C endpoint: median tumor weight (est.), dose: 12.0 mg/kg/injection, schedule: Q07DX002 (ip), vehicle: saline, higher T/C = larger tumour) was 1 of 10 on day 20 and the survivor count (T/C endpoint: median tumor weight (est.), dose: 16.0 mg/kg/injection, schedule: Q07DX002 (ip), vehicle: water, higher T/C = larger tumour) was 0 of 10 on day 20.

`Nc1nc2c(C(=O)N3CCCC3)nnn2c2ccccc12` was tested, and the survivor count [4] was 0 of 10 on day 20 and the survivor count [5] was 0 of 10 on day 20.

In the case of `ClCCCN1CCN(CCCCl)CC1`, the T/C (T/C endpoint: median tumor weight (est.), dose: 12.5 mg/kg/injection, schedule: Q07DX002 (ip), vehicle: distilled water + alcohol, higher T/C = larger tumour) is reported as 135 % of control, the T/C (T/C endpoint: median tumor weight (est.), dose: 25.0 mg/kg/injection, schedule: Q07DX002 (ip), vehicle: distilled water + alcohol, higher T/C = larger tumour) is reported as 135 % of control and the survivor count (T/C endpoint: median tumor weight (est.), dose: 200.0 mg/kg/injection, schedule: Q07DX002 (ip), vehicle: distilled water + alcohol, higher T/C = larger tumour) is reported as 0 of 10 on day 20. The survivor count (T/C endpoint: median tumor weight (est.), dose: 400.0 mg/kg/injection, schedule: Q07DX002 (ip), vehicle: distilled water + alcohol, higher T/C = larger tumour) was 0 of 10 on day 20.

`COc1cccc2c1C(=O)c1c(O)c3c(c(O)c1C2=O)C[C@@](O)(C(=O)CO)C[C@@H]3OC1CC(OC(C)=O)C(OC(C)=O)C(C)O1` (stereo partly specified) was tested, and the survivor count (T/C endpoint: median tumor weight (est.), dose: 100.0 mg/kg/injection, schedule: Q07DX002 (ip), vehicle: distilled water + Tween-80, higher T/C = larger tumour) was 5 of 10 on day 20.

`CC(=O)Nc1ccc(C(=O)C=O)cc1` was tested, and the survivor count [4] was 6 of 10 on day 20 and the survivor count [5] was 1 of 10 on day 20 and 5 of 10 on day 20.

In the case of `O=C1NC2(CCCCC2)C(=O)N1CCN(CCCl)CCCl`, the survivor count (T/C endpoint: median tumor weight (est.), dose: 64.0 mg/kg/injection, schedule: Q07DX003 (ip), vehicle: Klucel (hydroxypropylcellulose) (HPC), higher T/C = larger tumour) is reported as 2 of 10 and the survivor count (T/C endpoint: median tumor weight (est.), dose: 128.0 mg/kg/injection, schedule: Q07DX003 (ip), vehicle: Klucel (hydroxypropylcellulose) (HPC), higher T/C = larger tumour) is reported as 1 of 10.

`CN(C)CCN1C(=O)c2cccc3cc(N)cc(c23)C1=O` was tested, and the T/C (T/C endpoint: median tumor weight (est.), dose: 16.0 mg/kg/injection, schedule: Q07DX002 (ip), vehicle: saline with Tween-80, higher T/C = larger tumour) was 142 % of control and the survivor count (T/C endpoint: median tumor weight (est.), dose: 128.0 mg/kg/injection, schedule: Q07DX002 (ip), vehicle: saline with Tween-80, higher T/C = larger tumour) was 1 of 10 on day 20.

`O=C(O)c1ccc(C(=O)O)c(C(=O)O)c1.[NH-]C1CCCCC1[NH-].[Pt+2]` was tested, and the survivor count (T/C endpoint: median tumor weight (est.), dose: 50.0 mg/kg/injection, schedule: Q07DX002 (ip), vehicle: sodium bicarbonate, higher T/C = larger tumour) was 0 of 10 on day 20 and 4 of 10 on day 20, the survivor count (T/C endpoint: median tumor weight (est.), dose: 75.0 mg/kg/injection, schedule: Q07DX002 (ip), vehicle: sodium bicarbonate, higher T/C = larger tumour) was 0 of 10 on day 20 and the survivor count (T/C endpoint: median tumor weight (est.), dose: 115.0 mg/kg/injection, schedule: Q07DX002 (ip), vehicle: sodium bicarbonate, higher T/C = larger tumour) was 0 of 10 on day 20.

`Cc1ccc(S(=O)(=O)N/N=C/C(Br)=C(/Br)C(=O)O)cc1` was tested, and the T/C [8] was 127 and 140 % of control, the T/C [7] was 131 % of control and the T/C [9] was 126 % of control. For the same molecule, the survivor count (T/C endpoint: median tumor weight (est.), dose: 400.0 mg/kg/injection, schedule: Q07DX002 (ip), vehicle: Klucel (hydroxypropylcellulose) (HPC), higher T/C = larger tumour) was 6 of 10 on day 20.

For `O=C1NC(=O)NC(C(=O)O)N1`, the survivor count (T/C endpoint: median tumor weight (est.), dose: 1800.0 mg/kg/injection, schedule: Q01DX001 (ip), vehicle: DMSO, higher T/C = larger tumour) was 5 of 10 on day 20.
